Results are given in words; binding and its absence hold for the method and conditions named. Some results given as binding are weak or reduced against the parent protein; the word gives no strength.
What was measured:
[1] = target: cynomolgus CD40 on B cells (cynomolgus) (UniProt G7PG38); test: in vivo: single intravenous dose of CFZ533 (calculated 16.2, 18.5 and 20 mg/kg) in three cynomolgus monkeys; CD40 occupancy on peripheral B cells (free and total CD40) over time, flow cytometry [ii]
[2] = target: cynomolgus CD40 on B cells (cynomolgus) (UniProt G7PG38); test: refers to the cellular binding data above it
[3] = target: rhesus CD40 on B cells (rhesus) (UniProt F6SNI1); test: refers to the cellular binding data above it
[4] = target: cynomolgus CD40 on B cells (cynomolgus) (UniProt G7PG38); test: flow cytometry on B cells
[5] = target: rhesus CD40 on B cells (rhesus) (UniProt F6SNI1); test: flow cytometry on B cells

Amino acid sequences for entries named in this document (tags omitted). A change or cut given only in a name is not applied to a line headed by its entry. Chains listed by the source or under a name are the forms on record and can include a tag or linker.
cynomolgus CD40 on B cells (G7PG38, form named): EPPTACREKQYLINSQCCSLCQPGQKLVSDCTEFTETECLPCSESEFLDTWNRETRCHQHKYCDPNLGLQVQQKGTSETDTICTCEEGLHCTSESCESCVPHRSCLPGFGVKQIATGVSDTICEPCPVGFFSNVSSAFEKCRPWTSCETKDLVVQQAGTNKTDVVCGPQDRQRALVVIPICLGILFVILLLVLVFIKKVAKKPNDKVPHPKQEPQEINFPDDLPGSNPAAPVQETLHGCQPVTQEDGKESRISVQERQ
rhesus CD40 on B cells (F6SNI1, form named): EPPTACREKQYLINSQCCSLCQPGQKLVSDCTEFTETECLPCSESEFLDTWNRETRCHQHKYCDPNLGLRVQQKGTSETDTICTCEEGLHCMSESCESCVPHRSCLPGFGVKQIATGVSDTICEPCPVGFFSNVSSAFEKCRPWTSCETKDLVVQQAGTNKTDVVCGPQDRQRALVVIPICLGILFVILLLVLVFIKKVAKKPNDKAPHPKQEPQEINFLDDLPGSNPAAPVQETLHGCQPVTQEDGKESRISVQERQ

binding [1]: binds
binding [2]: binds
binding [3]: binds
binding [4]: binds
binding [5]: binds
B1: CFZ533 (antibody, human IgG1, kappa, N297A, V domains shown)
VH: QVQLVESGGGVVQPGRSLRLSCAASGFTFSSYGMHWVRQAPGKGLEWVAVISYEESNRYHADSVKGRFTISRDNSKITLYLQMNSLRTEDTAVYYCARDGGIAAPGPDYWGQGTLVTVSS
VL: DIVMTQSPLSLTVTPGEPASISCRSSQSLLYSNGYNYLDWYLQKPGQSPQVLISLGSNRASGVPDRFSGSGSGTDFTLKISRVEAEDVGVYYCMQARQTPFTFGPGTKVDIRR

— patent publication US20220098315A1 (Novartis, published 2022)
